Data: PubChem BioAssay AID1508600 (Functional Genomics Laboratory (NCATS/FGL), 2020)
Among all 53,000 sequences or so, about 3,700 (7%) were called active.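 Rule for the calls: active = gene knockdowns whose robust z-score for IL-1 alpha signal is at least 2 or at most -2, so actives lie on both sides; inactive = the rest.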 This is one part of the list.

Assay: Components of the Cytosolic LPS Sensing Pathway: Gene Identification via Genome-wide siRNA Screen;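 note: robust z of the log signal after scaling to non-targeting control siRNA wells of the plate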
Details: RAW264.7 macrophages, IL-1a HTRF, actives lie on both sides, screened at 100 nM (by protocol), cells primed 5 h with Pam3CSK4 first
Summary of the method: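 Using IL-1a HTRF as read-out, the screen measured release from RAW264.7 cells after 48h siRNA knockdown (100 nM), 5 h Pam3CSK4 priming and 24 h cytosolic LipidA. Values were expressed relative to negative-control wells as robust z-scores.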

Sequence	z-score
GGCAGUUAGUAAGUUUAAATT against Eif5a2	inactive: 1.22
CCGAUUUUUACUUUUAGCUTT against Slc16a7	inactive: 1.86
GGGCUCCUUAUGGAGGAUATT against A630091E08Rik	inactive: -0.688
GGAGAGGUGGAAAUCUCUATT against Rasgef1c	inactive: 0.202
GGAUGAGAGAAAGUUACCCTT against Tspo2	active: -2.78
GCAUUCAGAAAUUGAGGGUTT against Sin3b	inactive: -0.0974
GCUGAAUUCGAAGAACAAUTT against Bpifb2	inactive: 1.91
GCCCAAACAUUCUUCGACUTT against Ubl3	inactive: -1.62
GGGCAUCUUGUAUAUCUGGTT against Spata33	inactive: 0.363
GGGUCACAGAGGUUACCCATT against Col2a1	inactive: 1.25
CCAUUGAAUCAGUUGAAGUTT against Slc5a7	inactive: 1.21
GGGUGAAGAUUCUCUACAATT against Dctn3	inactive: -0.621
GGGAACCAAACUGUCAUCUTT against Olfr20	inactive: -0.133
GGAGUACUGGGCAUAUAAATT against Slc29a3	inactive: -0.324
GGGUUAUGAAGACAAACCATT against Ccdc47	inactive: -0.307
GCUCCUAAUCUAGGAUCUGTT against Prss22	inactive: 1.69
CCUUACUGAUACUCAAUUUTT against Sec14l4	inactive: 1.21
GAGCCUCUGUCUUUUUCUATT against Olfr342	inactive: -0.32
GGCAGGUUUGGUAACCAGATT against Fut1	inactive: 0.559
GCAAGGUGCACCUAAAGCATT against Egr4	inactive: -0.664
GCUGUCUAGUACAUCUGACTT against Cry2	inactive: -0.32
CGACACUCAAUGUGAACUUTT against Grtp1	inactive: -0.881

Sequence	z-score
GGCUGAUUUUGAAAAGCAATT against Rdh5	inactive: 1.47
GGAAAUAUGCGAAAGCUGATT against Seh1l	inactive: -1.88
GGACUUUGAAAAGAGAAUUTT against Polb	inactive: -0.213
GAAAGUUUACGGGAAAUCUTT against Klf13	active: 2.04
GCAUCACGGAUUCGAAUUGTT against Dgkz	inactive: -1.25
CCAUCAAAUCGAACUGUUUTT against Tmx1	inactive: 0.394
GGUAUGCUAUGAUCUUAACTT against Olfr561	inactive: -0.0643
CGGGAUUAAUCUUUCUGGGTT against Clec1b	inactive: -1.94
GGACACUCAGAAGAAAACCTT against Syne2	inactive: 0.0756
GGGCGAGUUGAAGAAUUUCTT against Dbf4	inactive: 1.12
GGAGUAGCUGUACUCAACATT against Olfr790	inactive: -0.246
GCUCCAACACGAGAAGAAATT against Zfp598	inactive: 0.397
CCGGUUUCGAAAGAGAACUTT against Irs1	inactive: 0.105
GGAAGGAGGACAGAGGAAUTT against Tmem19	active: 2.34
GGUGAGCACUAAAUGCAGATT against Cldn16	inactive: 0.892
GUGACAAUGAAAAAUGUGUTT against Clec4b1	active: -2.42
GGUGUACCCAGUACUGCCATT against Cdk2	inactive: 0.57
GGCAUUUUUCGGAUUGACATT against Mmp27	inactive: -0.807
GCAUCUUCCACAUUCGCUCTT against Olfr945	inactive: 0.452
GGACAGGAAGGUCAUCCCUTT against Sntb2	inactive: -0.568
CCCUCUGUUCGAGAAGAGGTT against Rpl7a	inactive: 1.57
GGUGAUCCUAAGAAAGUCCTT against Ireb2	inactive: 1.07

Sequence	z-score
GGCUAAAAAGAGUAGACUATT against Irs1	inactive: 1.14
GGUUUCAAAGAGUCUCAUUTT against Ccdc136	inactive: -0.00288
GGUGGUUGGUGGGUAUUUATT against Slc30a3	inactive: 1.64
CCUUAGAUGAAAUUAGACATT against Bhlhb9	inactive: 0.853
CACCUAAACCCAUUCCAGUTT against Dpm3	inactive: 1.45
CCUGCCAGAGCCGGAAUUUTT against Nrp	inactive: 1.49
GGCUGACCUCAUUAAUAACTT against Hsp90ab1	inactive: 0.0919
GGAUUUGUGACUUUCUGCATT against Gstt4	inactive: 0.209
CCAUCUGGACUUCAGUUUUTT against Rap1gap2	inactive: 0.901
GCUAUGUGGCCAUAGAUUATT against Hemk1	inactive: -0.493
GGAACACAUUACCUCAAUUTT against Lipt2	inactive: -0.705
GGAAGACCCUUCUUAUGACTT against Fli1	inactive: 0.318
GCCUUAUCCUGAGAAUGGCTT against Lrrc47	inactive: -0.61
GGAGACAACUGUCAAGCUGTT against Igdcc4	inactive: -0.0921
CGAACAGAAACAGUUAUUATT against Gbp2	inactive: 1.01
GGCAUCCUUGACAUAACCUTT against Olfr586	inactive: -1.89
GGUGUUUAAAUACAACCGATT against Ptgis	inactive: -0.506
GGAGUGCACUGGAAAACACTT against Rasef	inactive: -0.436
GGAAUUUGAAGCUGUCACUTT against Spata2	inactive: -0.433
GCUCAUUCGGACCAAAACUTT against Nod1	inactive: -1.77
CCCAGGGAAACCUUAACUCTT against Pstpip1	inactive: -0.112
GGAUGCUCUAGUUCCAUUATT against Aym1	inactive: 0.51

Sequence	z-score
GGGAAUUGCUCACCUCCAUTT against Klre1	inactive: -0.46
GGACAUUACCAGCUUGCUGTT against Nkd1	inactive: 0.665
GGCUGAUGAUAAGCUGAUUTT against Letm1	inactive: 0.583
GGAAUUGUUAAUUGUGGGATT against Stau2	active: -2.25
GCUGUGCAUAUGGUAUAUUTT against Taok1	inactive: 1.11
GGUAGCAAUCAUUUUCCUUTT against Ccdc122	inactive: -0.569
GCCAAUAUUUGUUUUUGAGTT against Ranbp3l	inactive: 0.0685
GGAAGAUGAAGAGUCAGAGTT against Setd1b	active: -2.52
GGUCUACGACCGAUGUUCUTT against 9530003J23Rik	inactive: 0.729
GGAACAGAAAGCUAUGGAUTT against Surf6	inactive: 1.82
CCCACUUUGACACGACACATT against Sertad1	inactive: -1.46
GCAUCAUUUUAACACUUCUTT against Tubd1	inactive: -0.0435
GGUCUACUCUUCAUAUCGCTT against Rab3d	inactive: -0.566
CGUACUCCGAAUUCAUGCATT against Jmjd8	inactive: -1.64
CGAUGUACUGUCUCUUUUGTT against Ywhaz	inactive: 1.73
UGGCUGCCCACACCUUUAATT against Ankrd39	inactive: -0.617
GGUGAAGGCUGACCGAGAUTT against Rps14	inactive: -1.2
GGAUGGUGAAAAUCUUGAGTT against Mindy1	inactive: 1.39
GGAAAUUCUUUGUGAGUUUTT against Ncapd2	inactive: 1.06
GGUUUUAUUGCCUAAAAAGTT against Ankfy1	inactive: -0.357
GGAUAAGGAGAUGAAUUCCTT against Aard	inactive: 1.01
GCCCACAGGAUAAUUGUUATT against Brox	inactive: 1.26

4 entries drawn at random from the list so far:
Sequence	z-score
GGAAAUUCUUUGUGAGUUUTT against Ncapd2	inactive: 1.06
CCCACUUUGACACGACACATT against Sertad1	inactive: -1.46
GGAUGGUGAAAAUCUUGAGTT against Mindy1	inactive: 1.39
GGCUGAUGAUAAGCUGAUUTT against Letm1	inactive: 0.583

(continued)

Sequence	z-score
CCCUGACCUUCAGAUUGUGTT against Olfr788	inactive: 0.14
GCAGUGCAGAUCGUUAUUGTT against Stx7	inactive: 0.223
GGGAUGAAUCCUAUUAGUATT against Stau1	inactive: -1.19
GGCAGUUCAUGUUUAAAGATT against Fgfr1op2	inactive: -0.381
CGGUCUGUGUAUGUUAAGATT against Upp2	inactive: -0.216
GGACUUUGUACAUUGUUUUTT against Actb	active: 2.2
GGCGUACAACAACCUACAGTT against St6galnac5	inactive: 1.06
GGUCGACCUAUUGGUAUUCTT against Oas1h	inactive: -1.63
CGAAUGGCUGACCAUAAAATT against Sdr9c7	inactive: -0.803
GGUAUGAUGAUUGUUAGAUTT against Phf20	inactive: 0.141
GCGUGCACACCUUUGAACUTT against 4930563M21Rik	inactive: -0.0108
CCAGGAGGAUACAAUCCCUTT against Rgs3	active: -3.38
GGGAAUUUACUGCAGGAUATT against Itln1	active: 2.72
GGGACAGUUAGUCAGUAAGTT against Pus7l	inactive: 0.196
GGACCAGUGUCUUAUUAAUTT against Osbpl8	inactive: 0.619
GGGAUGAAGUGUUCCAUCCTT against Ccdc187	active: 2.88
GGACUGAAGCAGUAUCAAGTT against Eaf2	inactive: -0.463
GGUCAUAGAUGAGCUUAGUTT against Appl1	inactive: -0.763
GGAGAGAAGAAAGAAAAAGTT against Gps2	inactive: -1.27

As a short view, some entries already given:
Sequence	z-score
GGCAGUUCAUGUUUAAAGATT against Fgfr1op2	inactive: -0.381
CGGUCUGUGUAUGUUAAGATT against Upp2	inactive: -0.216
GGACUUUGUACAUUGUUUUTT against Actb	active: 2.2
GGCGUACAACAACCUACAGTT against St6galnac5	inactive: 1.06
